# Results as given in patent US20140038203A1, “METHODS FOR DETECTING OR PREDICTING KIDNEY DISEASE” (MUSC FOUNDATION FOR RESEARCH DEVELOPMENT, priority 2012, published 2014).
# B1: Colipase (protein, UniProt P04118 23-112, looked up)
# Colipase: GIIINLENGELCMNSAQCKSNCCQHSSALGLARCTSMASENSECSVKTLYGIYYKCPCERGLTCEGDKTIVGSITNTNFGICHDAGRSKQ
# B2: Plasma serine protease inhibitor (protein, UniProt P05154 26-406, looked up)
# Plasma serine protease …: EMKKRVEDLHVGATVAPSSRRDFTFDLYRALASAAPSQSIFFSPVSISMSLAMLSLGAGSSTKMQILEGLGLNLQKSSEKELHRGFQQLLQELNQPRDGFQLSLGNALFTDLVVDLQDTFVSAMKTLYLADTFPTNFRDSAGAMKQINDYVAKQTKGKIVDLLKNLDSNAVVIMVNYIFFKAKWETSFNHKGTQEQDFYVTSETVVRVPMMSREDQYHYLLDRNLSCRVVGVPYQGNATALFILPSEGKMQQVENGLSEKTLRKWLKMFKKRQLELYLPKFSIEGSYQLEKVLPSLGISNVFTSHADLSGISNHSNIQVSEMVHKAVVEVDESGTRAAAATGTIFTFRSARLNSQRLVFNRPFLMFIVDNNILFLGKVNRP
# B3: WAP four-disulfide core domain protein 2 (protein, UniProt Q14508 31-124, looked up)
# WAP four-disulfide core …: EKTGVCPELQADQNCTQECVSDSECADNLKCCSAGCATFCSLPNDKEGSCPQVNINFPQLGLCRDQCQVDSQCPGQMKCCRNGCGKVSCVTPNF
# B4: Peroxiredoxin-2 (protein, UniProt P32119 2-198, looked up)
# Peroxiredoxin-2: ASGNARIGKPAPDFKATAVVDGAFKEVKLSDYKGKYVVLFFYPLDFTFVCPTEIIAFSNRAEDFRKLGCEVLGVSVDSQFTHLAWINTPRKEGGLGPLNIPLLADVTRRLSEDYGVLKTDEGIAYRGLFIIDGKGVLRQITVNDLPVGRSVDEALRLVQAFQYTDEHGEVCPAGWKPGSDTIKPNVDDSKEYFSKHN
# B5: Resistin (protein, UniProt Q9HD89 19-108, looked up)
# Resistin: KTLCSMEEAINERIQEVAGSLIFRAISSIGLECQSVTSRGDLATCPRGFAVTGCTCGSACGSWDVRAETTCHCQCAGMDWTGARCCRVQP
# B6: Cadherin-1 (protein, UniProt P12830 155-882, looked up)
# Cadherin-1: DWVIPPISCPENEKGPFPKNLVQIKSNKDKEGKVFYSITGQGADTPPVGVFIIERETGWLKVTEPLDRERIATYTLFSHAVSSNGNAVEDPMEILITVTDQNDNKPEFTQEVFKGSVMEGALPGTSVMEVTATDADDDVNTYNAAIAYTILSQDPELPDKNMFTINRNTGVISVVTTGLDRESFPTYTLVVQAADLQGEGLSTTATAVITVTDTNDNPPIFNPTTYKGQVPENEANVVITTLKVTDADAPNTPAWEAVYTILNDDGGQFVVTTNPVNNDGILKTAKGLDFEAKQQYILHVAVTNVVPFEVSLTTSTATVTVDVLDVNEAPIFVPPEKRVEVSEDFGVGQEITSYTAQEPDTFMEQKITYRIWRDTANWLEINPDTGAISTRAELDREDFEHVKNSTYTALIIATDNGSPVATGTGTLLLILSDVNDNAPIPEPRTIFFCERNPKPQVINIIDADLPPNTSPFTAELTHGASANWTIQYNDPTQESIILKPKMALEVGDYKINLKLMDNQNKDQVTTLEVSVCDCEGAAGVCRKAQPVEAGLQIPAILGILGGILALLILILLLLLFLRRRAVVKEPLLPPEDDTRDNVYYYDEEGGGEEDQDFDLSQLHRGLDARPEVTRNDVAPTLMSVPRYLPRPANPDEIGNFIDENLKAADTDPTAPPYDSLLVFDYEGSGSEAASLSSLNSSESDKDQDYDYLNEWGNRFKKLADMYGGGEDD
# B7: Galectin-3-binding protein (protein, UniProt Q08380 19-585, looked up)
# Galectin-3-binding protein: VNDGDMRLADGGATNQGRVEIFYRGQWGTVCDNLWDLTDASVVCRALGFENATQALGRAAFGQGSGPIMLDEVQCTGTEASLADCKSLGWLKSNCRHERDAGVVCTNETRSTHTLDLSRELSEALGQIFDSQRGCDLSISVNVQGEDALGFCGHTVILTANLEAQALWKEPGSNVTMSVDAECVPMVRDLLRYFYSRRIDITLSSVKCFHKLASAYGARQLQGYCASLFAILLPQDPSFQMPLDLYAYAVATGDALLEKLCLQFLAWNFEALTQAEAWPSVPTDLLQLLLPRSDLAVPSELALLKAVDTWSWGERASHEEVEGLVEKIRFPMMLPEELFELQFNLSLYWSHEALFQKKTLQALEFHTVPFQLLARYKGLNLTEDTYKPRIYTSPTWSAFVTDSSWSARKSQLVYQSRRGPLVKYSSDYFQAPSDYRYYPYQSFQTPQHPSFLFQDKRVSWSLVYLPTIQSCWNYGFSCSSDELPVLGLTKSGGSDRTIAYENKALMLCEGLFVADVTDFEGWKAAIPSALDTNSSKSTSSFPCPAGHFNGFRTVIRPFYLTNSSGVD
# B8: Interleukin-18-binding protein (protein, UniProt O95998 31-194, looked up)
# Interleukin-18-binding protein: TPVSQTTTAATASVRSTKDPCPSQPPVFPAAKQCPALEVTWPEVEVPLNGTLSLSCVACSRFPNFSILYWLGNGSFIEHLPGRLWEGSTSRERGSTGTQLCKALVLEQLTPALHSTNFSCVLVDPEQVVQRHVVLAQLWAGLRATLPPTQEALPSSHSSPQQQG
# B9: Vitelline membrane outer layer protein 1 homolog (protein, UniProt Q7Z5L0 25-202, looked up)
# Vitelline membrane outer …: QTDGRNGYTAVIEVTSGGPWGDWAWPEMCPDGFFASGFSLKVEPPQGIPGDDTALNGIRLHCARGNVLGNTHVVESQSGSWGEWSEPLWCRGGAYLVAFSLRVEAPTTLGDNTAANNVRFRCSDGEELQGPGLSWGDFGDWSDHCPKGACGLQTKIQGPRGLGDDTALNDARLFCCRS
# B10: Neutrophil gelatinase-associated lipocalin (protein, UniProt P80188 21-198, looked up)
# Neutrophil …: QDSTSDLIPAPPLSKVPLQQNFQDNQFQGKWYVVGLAGNAILREDKDPQKMYATIYELKEDKSYNVTSVLFRKKKCDYWIRTFVPGCQPGEFTLGNIKSYPGLTSYLVRVVSTNYNQHAMVFFKKVSQNREYFKITLYGRTKELTSELKENFIRFSKSLGLPENHIVFPVPIDQCIDG
# B11: Dermcidin (protein, UniProt P81605 20-110, looked up)
# Dermcidin: YDPEAASAPGSGNPCHEASAAQKENAGEDPGLARQAPKPRKQRSSLLEKGLDGAKKAVGGLGKLGKDAVEDLESVGKGAVHDVKDVLDSVL
# Experiment: RRT study: LC-MS/MS urinary proteomics, AKI after cardiac surgery, RRT vs No RRT
# Parameters: species or system human
# Details: direction of differential abundance, patients who did vs did not require RRT/dialysis
row,Molecule,Up or Down
1,B1,Down
2,B2,Down
3,B3,Down
4,B4,Down
5,B5,Down
6,B6,Down
7,B7,Down
8,B8,Down
9,B9,Down

# Same assay, conditions: direction of urinary abundance, patients who did vs did not require RRT/dialysis
row,Molecule,Up or Down
1,B10,Up
2,B11,Up

# Same assay, conditions: patients who did vs did not require RRT/dialysis
row,Molecule,Mean Fold Change
1,B1,4.037
2,B2,1.536
3,B3,1.052
4,B4,2.077
5,B5,1.3332
6,B6,1.245
7,B7,1.095
8,B8,9.54
9,B9,1.4267
